Reference: doi:10.1101/2024.10.11.617944
These are yes or no findings as the source states them, for the method shown. Some binding calls cover weakened binding; strength is not graded here. Where a sequence is shown, tags or fusion partners need not be part of it.

Protein sequences, listed by entry. Tags and fused reporters are not part of them.
UniProt Q39026: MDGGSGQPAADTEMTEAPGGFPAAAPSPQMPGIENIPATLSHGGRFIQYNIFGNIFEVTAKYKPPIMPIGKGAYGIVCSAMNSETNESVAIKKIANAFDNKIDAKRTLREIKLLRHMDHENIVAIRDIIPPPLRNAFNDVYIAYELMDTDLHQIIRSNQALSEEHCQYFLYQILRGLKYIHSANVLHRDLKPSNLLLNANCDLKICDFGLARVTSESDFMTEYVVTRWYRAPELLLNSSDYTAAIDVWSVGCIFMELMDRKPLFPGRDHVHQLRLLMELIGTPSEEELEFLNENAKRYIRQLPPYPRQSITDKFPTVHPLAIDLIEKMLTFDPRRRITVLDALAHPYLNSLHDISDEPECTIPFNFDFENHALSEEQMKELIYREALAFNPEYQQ

T1: ABI5-Binding Protein 3 (AFP3), yeast two-hybrid fusions (Arabidopsis thaliana) (UniProt Q94F39)
T1 sequence: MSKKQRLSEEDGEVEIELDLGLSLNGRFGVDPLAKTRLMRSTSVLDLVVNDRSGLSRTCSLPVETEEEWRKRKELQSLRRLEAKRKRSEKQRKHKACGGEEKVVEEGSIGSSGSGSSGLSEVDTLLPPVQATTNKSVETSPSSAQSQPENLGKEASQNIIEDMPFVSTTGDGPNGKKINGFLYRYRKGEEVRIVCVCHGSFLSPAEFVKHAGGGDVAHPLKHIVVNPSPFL

T2: ABI5-Binding Protein 4 (AFP4), yeast two-hybrid fusions (Arabidopsis thaliana) (UniProt Q9S7Z2)
T2 sequence: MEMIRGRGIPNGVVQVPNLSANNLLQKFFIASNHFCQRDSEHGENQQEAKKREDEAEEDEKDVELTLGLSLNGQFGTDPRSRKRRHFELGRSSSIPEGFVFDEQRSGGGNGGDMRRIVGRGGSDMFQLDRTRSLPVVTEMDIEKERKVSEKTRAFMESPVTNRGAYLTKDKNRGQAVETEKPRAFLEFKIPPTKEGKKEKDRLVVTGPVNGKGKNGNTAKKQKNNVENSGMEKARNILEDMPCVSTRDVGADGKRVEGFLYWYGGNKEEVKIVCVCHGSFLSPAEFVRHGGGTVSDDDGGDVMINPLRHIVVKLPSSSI

T3: MPK3, BD fusion (Arabidopsis thaliana) (UniProt Q39023)
T3 sequence: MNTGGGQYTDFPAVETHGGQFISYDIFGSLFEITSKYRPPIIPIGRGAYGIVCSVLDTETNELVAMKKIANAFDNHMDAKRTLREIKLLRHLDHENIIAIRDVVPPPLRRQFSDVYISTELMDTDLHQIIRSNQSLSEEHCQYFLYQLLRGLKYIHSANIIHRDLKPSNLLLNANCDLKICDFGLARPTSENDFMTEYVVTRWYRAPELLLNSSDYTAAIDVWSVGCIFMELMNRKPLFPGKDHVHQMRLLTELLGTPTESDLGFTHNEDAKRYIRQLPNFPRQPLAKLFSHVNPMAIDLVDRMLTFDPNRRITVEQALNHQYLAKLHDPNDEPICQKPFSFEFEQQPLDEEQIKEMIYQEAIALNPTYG

T4: MPK7, yeast two-hybrid fusion (Arabidopsis thaliana) (UniProt Q39027)
T4 sequence: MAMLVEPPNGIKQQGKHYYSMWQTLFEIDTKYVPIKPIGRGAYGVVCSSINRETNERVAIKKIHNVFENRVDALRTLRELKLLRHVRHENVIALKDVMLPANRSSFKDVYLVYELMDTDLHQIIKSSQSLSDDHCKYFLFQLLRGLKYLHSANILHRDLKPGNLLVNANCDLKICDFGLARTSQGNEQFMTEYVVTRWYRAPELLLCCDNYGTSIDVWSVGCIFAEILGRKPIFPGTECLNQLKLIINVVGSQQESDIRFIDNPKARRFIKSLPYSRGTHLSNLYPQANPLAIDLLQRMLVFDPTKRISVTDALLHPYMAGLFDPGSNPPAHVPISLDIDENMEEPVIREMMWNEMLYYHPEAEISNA

T5: SnRK2.10, BD fusion (Arabidopsis thaliana) (UniProt Q9C958)
T5 sequence: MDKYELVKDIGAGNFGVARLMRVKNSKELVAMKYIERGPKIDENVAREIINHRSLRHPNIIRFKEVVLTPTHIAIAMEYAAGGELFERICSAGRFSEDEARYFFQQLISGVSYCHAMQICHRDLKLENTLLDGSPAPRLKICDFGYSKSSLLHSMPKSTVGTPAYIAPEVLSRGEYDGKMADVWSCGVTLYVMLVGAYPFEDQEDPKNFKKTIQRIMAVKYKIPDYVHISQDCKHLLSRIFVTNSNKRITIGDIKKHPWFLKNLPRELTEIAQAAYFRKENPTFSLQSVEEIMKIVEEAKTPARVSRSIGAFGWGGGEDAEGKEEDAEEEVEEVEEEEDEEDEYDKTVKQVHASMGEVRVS

T6: SnRK2.2, BD fusion (Arabidopsis thaliana) (UniProt Q39192)
T6 sequence: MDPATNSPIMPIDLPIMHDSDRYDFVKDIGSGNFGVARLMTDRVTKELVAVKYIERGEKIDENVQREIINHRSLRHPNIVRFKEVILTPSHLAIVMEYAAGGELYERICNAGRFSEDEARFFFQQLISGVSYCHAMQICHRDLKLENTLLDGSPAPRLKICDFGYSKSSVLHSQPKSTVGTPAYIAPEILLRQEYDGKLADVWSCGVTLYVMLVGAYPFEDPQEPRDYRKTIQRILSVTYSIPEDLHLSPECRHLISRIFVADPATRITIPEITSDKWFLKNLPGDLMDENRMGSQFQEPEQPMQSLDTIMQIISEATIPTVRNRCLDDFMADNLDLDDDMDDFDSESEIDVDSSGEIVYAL

T7: SnRK2.3, BD fusion (Arabidopsis thaliana) (UniProt Q39193)
T7 sequence: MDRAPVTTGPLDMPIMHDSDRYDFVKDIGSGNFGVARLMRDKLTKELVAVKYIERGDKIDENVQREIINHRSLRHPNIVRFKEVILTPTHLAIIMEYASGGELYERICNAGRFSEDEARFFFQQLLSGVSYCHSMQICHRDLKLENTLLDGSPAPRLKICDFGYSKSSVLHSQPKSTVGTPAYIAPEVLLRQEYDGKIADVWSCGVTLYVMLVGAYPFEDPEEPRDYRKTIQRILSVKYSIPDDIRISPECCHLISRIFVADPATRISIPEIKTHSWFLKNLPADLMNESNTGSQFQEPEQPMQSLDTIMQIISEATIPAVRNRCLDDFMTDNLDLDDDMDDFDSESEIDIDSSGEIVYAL

T8: SnRK2.6, BD fusion (Arabidopsis thaliana) (UniProt Q940H6)
T8 sequence: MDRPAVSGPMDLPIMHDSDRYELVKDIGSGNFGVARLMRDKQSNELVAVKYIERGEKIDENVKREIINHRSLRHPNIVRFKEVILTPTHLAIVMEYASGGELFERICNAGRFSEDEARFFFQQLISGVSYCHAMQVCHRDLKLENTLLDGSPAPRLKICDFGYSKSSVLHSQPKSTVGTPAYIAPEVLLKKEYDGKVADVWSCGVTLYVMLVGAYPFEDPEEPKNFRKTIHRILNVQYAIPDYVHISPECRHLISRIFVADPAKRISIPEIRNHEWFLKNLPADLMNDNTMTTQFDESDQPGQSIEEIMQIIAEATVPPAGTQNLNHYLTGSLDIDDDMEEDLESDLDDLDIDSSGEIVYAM

T9: ABI5-Binding Protein 2 (AFP2), yeast two-hybrid fusions (Arabidopsis thaliana) (UniProt Q9LMX5)
T9 sequence: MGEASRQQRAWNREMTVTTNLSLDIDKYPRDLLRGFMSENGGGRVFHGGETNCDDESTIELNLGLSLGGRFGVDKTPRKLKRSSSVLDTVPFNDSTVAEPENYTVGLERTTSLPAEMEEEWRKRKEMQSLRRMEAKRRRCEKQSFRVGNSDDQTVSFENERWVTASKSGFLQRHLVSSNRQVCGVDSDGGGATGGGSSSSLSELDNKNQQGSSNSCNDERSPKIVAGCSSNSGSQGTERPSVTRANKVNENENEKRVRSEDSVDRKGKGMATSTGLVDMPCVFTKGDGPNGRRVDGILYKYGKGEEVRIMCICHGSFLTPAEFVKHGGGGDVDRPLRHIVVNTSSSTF


Tests used:
Assay in all cases: two-hybrid
[1] = target: T1, ABI5-Binding Protein 3 (AFP3), yeast two-hybrid fusions (Arabidopsis thaliana)
[2] = target: T2, ABI5-Binding Protein 4 (AFP4), yeast two-hybrid fusions (Arabidopsis thaliana)
[3] = target: T3, MPK3, BD fusion (Arabidopsis thaliana)
[4] = target: MPK6, BD fusion (Arabidopsis thaliana) (UniProt Q39026)
[5] = target: T4, MPK7, yeast two-hybrid fusion (Arabidopsis thaliana)
[6] = target: T5, SnRK2.10, BD fusion (Arabidopsis thaliana)
[7] = target: T6, SnRK2.2, BD fusion (Arabidopsis thaliana)
[8] = target: T7, SnRK2.3, BD fusion (Arabidopsis thaliana)
[9] = target: T8, SnRK2.6, BD fusion (Arabidopsis thaliana)
[10] = target: T9, ABI5-Binding Protein 2 (AFP2), yeast two-hybrid fusions (Arabidopsis thaliana)

Molecule	binding [1]	binding [2]	binding [3]	binding [4]	binding [5]	binding [6]	binding [7]	binding [8]	binding [9]	binding [10]
ABA-… 1 (ABI1), AD fusion (from UniProt P49597 1-434) (enzyme)	no binding	no binding								
ABI5-Binding Protein 1 (AFP1), yeast two-hybrid fusions (protein, UniProt Q9LQ98 1-345) MAEANERSKEMARSNSCVFPRDLLQRFISNSVEGEDDDEEEDDDEIELNLGLSLGGRFGVDKSNKLVRSSSVVVTMPLFREDHHHHQAAAMITTKVSTETVAGATRGTGLMRTTSLPAESEEEWRKRKEMQTLRRMAAKRRRSEKLRTGVGGGNSNNPEEAATATASRRRGRPSSGLPRWSATANKSGLLRQHSAGLDSLQVSGESLGGGRAAGSSSSVSELETKASSDEARSLPSTTQPQQETTTKPTNRLRRLSSVDMNMKMEPQGKGKSEMPCVFTKGDGPNGKRVDGILYRYGSGEEVRIMCVCHGDFLSPADFVKHAGGPHVDHPLRHIVVNTSSPSNLL			binds	binds	binds	no binding	no binding	binds	binds	
ABI5-Binding Protein 2 (AFP2), yeast two-hybrid fusions (protein, UniProt Q9LMX5 1-348) MGEASRQQRAWNREMTVTTNLSLDIDKYPRDLLRGFMSENGGGRVFHGGETNCDDESTIELNLGLSLGGRFGVDKTPRKLKRSSSVLDTVPFNDSTVAEPENYTVGLERTTSLPAEMEEEWRKRKEMQSLRRMEAKRRRCEKQSFRVGNSDDQTVSFENERWVTASKSGFLQRHLVSSNRQVCGVDSDGGGATGGGSSSSLSELDNKNQQGSSNSCNDERSPKIVAGCSSNSGSQGTERPSVTRANKVNENENEKRVRSEDSVDRKGKGMATSTGLVDMPCVFTKGDGPNGRRVDGILYKYGKGEEVRIMCICHGSFLTPAEFVKHGGGGDVDRPLRHIVVNTSSSTF			binds	binds	binds	no binding	binds	binds	binds	binds
ABI5-Binding Protein 3 (AFP3), yeast two-hybrid fusions (protein, UniProt Q94F39 1-231) MSKKQRLSEEDGEVEIELDLGLSLNGRFGVDPLAKTRLMRSTSVLDLVVNDRSGLSRTCSLPVETEEEWRKRKELQSLRRLEAKRKRSEKQRKHKACGGEEKVVEEGSIGSSGSGSSGLSEVDTLLPPVQATTNKSVETSPSSAQSQPENLGKEASQNIIEDMPFVSTTGDGPNGKKINGFLYRYRKGEEVRIVCVCHGSFLSPAEFVKHAGGGDVAHPLKHIVVNPSPFL			binds	binds	binds	no binding	no binding	binds	binds	
